Experimental data as given in patent US20250026838A1.
These are yes or no findings as the source states them, for the method shown. Some results given as binding are weak or reduced against the parent protein; the word gives no strength.

Sequences of proteins named here, by UniProt entry; tags and fusion partners are left off. A change or cut given only in a name is not applied to a line headed by its entry. Residues count along the entry.
UniProt P02748, residues 22-559: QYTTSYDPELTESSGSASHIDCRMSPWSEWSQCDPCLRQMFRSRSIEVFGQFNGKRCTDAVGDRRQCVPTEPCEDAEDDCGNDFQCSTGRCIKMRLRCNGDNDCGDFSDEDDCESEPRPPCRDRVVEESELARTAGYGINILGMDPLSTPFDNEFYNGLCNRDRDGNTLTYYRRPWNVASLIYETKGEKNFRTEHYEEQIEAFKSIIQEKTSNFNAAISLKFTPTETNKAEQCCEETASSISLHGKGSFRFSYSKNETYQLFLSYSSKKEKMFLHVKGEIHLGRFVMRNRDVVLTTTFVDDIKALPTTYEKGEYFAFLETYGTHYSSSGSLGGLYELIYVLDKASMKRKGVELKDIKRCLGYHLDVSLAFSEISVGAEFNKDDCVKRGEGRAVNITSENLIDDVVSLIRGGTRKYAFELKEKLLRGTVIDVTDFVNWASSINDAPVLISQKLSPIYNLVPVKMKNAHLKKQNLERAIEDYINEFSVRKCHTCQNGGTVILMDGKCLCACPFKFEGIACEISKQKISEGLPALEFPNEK
UniProt P17931: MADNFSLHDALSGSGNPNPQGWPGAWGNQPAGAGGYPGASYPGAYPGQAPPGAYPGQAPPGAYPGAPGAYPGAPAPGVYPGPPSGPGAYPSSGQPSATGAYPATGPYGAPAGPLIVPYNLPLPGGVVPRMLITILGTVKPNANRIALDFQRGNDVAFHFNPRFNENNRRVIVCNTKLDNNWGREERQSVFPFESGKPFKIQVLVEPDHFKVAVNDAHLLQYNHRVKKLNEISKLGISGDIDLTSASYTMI

Target: human C9 (complement protein C9) (human) (UniProt P02748)
Assay: ELISA; galectin-3 coated, biotinylated aggregated C9, Avidin-HRP

binding: binds
Substance: Human Galectin-3 (Gal3) protein (from UniProt P17931 1-250)
